Laboratory results reported in PubChem BioAssay AID504648 (National Center for Advancing Translational Sciences (NCATS), 2011).
Hit rate of the full screen: of about 390,000 compounds, about 610 (0.16%) were called active. Inconclusive results, whose numbers are uncertain, are shown with a selection of clear calls. Calls come from the whole dose curve; as a rule, active = well fitted inhibition curve with a large enough effect; inconclusive = small, poorly fitted or top-dose-only effect, or effect the other way, or another doubt; inactive = no such curve, though single readings can be large or run the other way. Potencies beside an inconclusive call are fits to weak or partial responses and may not hold up.

Assay: Nrf2 qHTS screen for inhibitors: counterscreen for cytotoxicity
Conditions: A549 ARE-Fluc cells, CellTiter-Fluor viability, 18-24 h; activity change, negative = cytotoxicity: at 46 µM (top of the series)
Method in brief: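 Cytotoxicity counterscreen: CellTiter-Fluor fluorescence was measured in A549 ARE_Fluc cells after 18-24 h of compound exposure in a concentration series. The subsequent BugLite luminescent read reports ARE-luciferase activity.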
% is set by controls: 0 for no effect and ±100 for the full control effect; potency is the fitted concentration of half-maximal effect.

| SMILES | Potency | activity change, negative = cytotoxicity |
| --- | --- | --- |
| C/C(CC(=O)Nc1ccc(Cl)c(C(F)(F)F)c1)=N\NC(=O)c1ccccc1O | inconclusive: 18.4 µM [falling, single point] |  |
| N=c1c2c(-c3ccccc3)c(-c3ccccc3)n(Cc3ccco3)c2ncn1Cc1ccco1 | inconclusive: 20.6 µM [falling, single point] |  |
| Oc1cccc(C2c3[nH]c4ccccc4c3CCN2Cc2ccc3c(c2)CCO3)c1 (stereo not drawn) | inconclusive: 29.1 µM [falling, single point] |  |
| Cc1cc(/C=N/n2cnnc2)c(C)n1-c1ccc(OCc2ccc(Cl)cc2Cl)cc1 | inconclusive: 8.2 µM [falling, partial curve] |  |
| Cc1ccccc1OCCNc1cc(N2CCCCC2)ccc1[N+](=O)[O-] | inconclusive: 18.4 µM [falling, partial curve] |  |
| Cn1cnc2c(cnn2C)c1=N |  | inactive: 0.15% |
| CN(C)c1ccc(N=Nc2ccccc2Br)cc1 | inconclusive: 16.4 µM [falling, single point] |  |
| CCOc1ccccc1NC(=O)Cn1cnc2c(nnn2-c2cccc(OC)c2)c1=O | inconclusive: 4.61 µM [falling, partial curve, poor fit] |  |
| COc1ccc2[nH]c(C(=O)O)c(CCN3C(=O)c4cccc([N+](=O)[O-])c4C3=O)c2c1 | inconclusive: 23.1 µM [activator, partial curve, poor fit] |  |
| O=C(C(=Cc1ccccc1)CN1CCCCC1)c1ccccc1 | inconclusive: 16.4 µM [falling, single point] |  |
| CCCN(CCC)S(=O)(=O)c1ccc2c(c1)CCCN2C(C)=O |  | inactive: 8.28% |
| COc1cc(N2C(=O)C=CC2=O)ccc1N1C(=O)C=CC1=O | inconclusive: 29.1 µM [falling, single point] |  |
| O=C(Cn1nc(Cc2cccnc2)c2ccccc2c1=O)Nc1cccc(C(F)(F)F)c1 |  | inactive: -0.854% |
| COc1ccccc1N(Cc1cc2cccc(C)c2[nH]c1=O)C(=O)c1cccc(Cl)c1 | inconclusive: 18.4 µM [falling, single point] |  |
| COC(=O)c1ccc(Oc2cc(C)nc(-n3nc(C)cc3C)n2)cc1 | inconclusive: 5.17 µM [falling, partial curve, poor fit] |  |
| O=C(CC(c1ccccc1)c1cc(Br)ccc1O)NCC1(c2ccccc2)CCCC1 (stereo not drawn) | inconclusive: 29.1 µM [falling, single point] |  |
| O=C(C[n+]1cccc2ccccc21)c1ccc([N+](=O)[O-])cc1 | inconclusive: 18.4 µM [falling, single point] |  |
| CCCN1C(=O)/C(=C/C=C2\N(CC)c3ccccc3C2(C)C)SC1=S | inconclusive: 5.17 µM [falling, full curve] |  |
| COc1cc(OC)c(-c2c3cc(O)c(=O)cc-3oc3cc(O)c(O)cc23)cc1OC | active: 16.4 µM |  |
| CCCC[n+]1ccn(-c2nc3ccccc3nc2[N-]S(=O)(=O)c2ccc(Br)cc2)c1 |  | inactive: 7.3% |
| O=C(c1ccc2c(=O)n(-c3ccccc3)c(=O)[nH]c2c1)N1CCN(Cc2cccs2)CC1 |  | inactive: 6.83% |
| COc1ccc(OC)c(NC(=O)c2ccc3c(c2)c(C)c(C)n3Cc2ccc(F)cc2)c1 | inconclusive: 20.6 µM [activator, partial curve, poor fit] |  |

| SMILES | Potency | activity change, negative = cytotoxicity |
| --- | --- | --- |
| CCOC(=O)c1c(C)[nH]c(C(=O)CSc2nnnn2-c2ccccc2)c1C | inconclusive: 10.3 µM [activator, partial curve, poor fit] |  |
| COc1ccc(C(=O)N/N=C(\c2ccccc2)c2ccccn2)cc1 | inconclusive: 0.517 µM [falling, full curve] |  |
| CCN1CCN(c2cc(C)c3cc(NC(=S)NCCN(C)C)ccc3n2)CC1 | inconclusive: 16.4 µM [falling, partial curve] |  |
| Cc1ccc(CCNc2nc3c(S(=O)(=O)c4ccc(C)cc4)nnn3c3ccsc23)cc1 |  | inactive: -0.999% |
| Cc1ccc(NC(=O)c2ccc([N+](=O)[O-])s2)cc1S(=O)(=O)N1CCOCC1 | inconclusive: 29.1 µM [falling, single point] |  |
| CCOc1ccc(CCNc2nc3c(c(=O)n(C)c(=O)n3C)n2CC)cc1OCC |  | inactive: -8.11% |
| COC(=O)c1cc2occc2n1Cc1ccc(Cl)cc1 | inconclusive: 29.1 µM [falling, single point] |  |
| COc1ccccc1N1CCN(C(=O)c2oc3ccc(F)cc3c2C)CC1 | inconclusive: 32.6 µM [falling, partial curve, poor fit] |  |
| CCN(CC)CCNC(=O)c1ccc2c(=O)n(C3CCCC3)c(=S)[nH]c2c1 | inconclusive: 4.11 µM [falling, single point] |  |
| COc1ccc(C[C@H](N)C(=O)N[C@H]2[C@@H](O)[C@H](n3cnc4c(N(C)C)ncnc43)O[C@@H]2CO)cc1 | active: 1.46 µM |  |
| COC(=O)c1cc2oc(C)cc2n1CC(=O)Nc1ccc(C)cc1C |  | inactive: 1.22% |
| COc1ccc(-c2nc3c(=O)n(C)c(=O)nc-3n(C)n2)cc1 | active: 1.64 µM |  |
| CCOC(=O)c1cnc2c(C)cc(C)cc2c1NCCc1ccc(OC)c(OC)c1 |  | inactive: 5.83% |
| CCOC(=O)c1ccc(N/N=C/c2cc(Br)cc([N+](=O)[O-])c2O)cc1 | inconclusive: 20.6 µM [falling, partial curve, poor fit] |  |
| Oc1c(C(c2ccccn2)N2CCC(Cc3ccccc3)CC2)cc(Cl)c2cccnc12 (stereo not drawn) | inconclusive: 18.4 µM [falling, single point] |  |
| O=c1c2sc3ccccc3c2n(Cc2ccccc2Cl)c(=O)n1Cc1ccccc1 |  | inconclusive: -39.7% [activator] |
| O=C(O)c1ccccc1OC(=O)C12CC3CC(CC(C3)C1)C2 |  | inactive: 0.31% |
| CCc1ccccc1NC(=O)Cn1c(=O)n(CCCS(=O)(=O)C2CCCCC2)c(=O)c2ccccc21 |  | inactive: 11.7% |
| O=C(Cn1c(=O)c2ccccc2n(CC(=O)Nc2ccc(Cl)cc2)c1=O)NCCc1ccccc1 |  | inconclusive: -43.3% [activator] |
| CC(=O)c1cc(C(=O)NC2CCCc3c2cnn3-c2cc(C)cc(C)c2)[nH]n1 (stereo not drawn) |  | inactive: 0.727% |
| COc1ccc(Cn2c(=O)[nH]c3cc(C(=O)NC4CCN(Cc5ccccc5)CC4)ccc32)cc1 | inconclusive: 18.4 µM [falling, partial curve, poor fit] |  |

Look-ups from the entries so far:
Under activity change, negative = cytotoxicity, `O=C(O)c1ccccc1OC(=O)C12CC3CC(CC(C3)C1)C2` has the entry inactive: 0.31%
Under activity change, negative = cytotoxicity, `CCOC(=O)c1cnc2c(C)cc(C)cc2c1NCCc1ccc(OC)c(OC)c1` has the entry inactive: 5.83%
Under activity change, negative = cytotoxicity, `CCOc1ccc(CCNc2nc3c(c(=O)n(C)c(=O)n3C)n2CC)cc1OCC` has the entry inactive: -8.11%
